Experimental findings from patent US20140017240A1 (University of California, published 2014) are described below.

Chains of the proteins cited; added tags and fusions are not shown. Lines headed by an entry give the natural chain unless they say otherwise; changes in a name come on top.
UniProt P19022: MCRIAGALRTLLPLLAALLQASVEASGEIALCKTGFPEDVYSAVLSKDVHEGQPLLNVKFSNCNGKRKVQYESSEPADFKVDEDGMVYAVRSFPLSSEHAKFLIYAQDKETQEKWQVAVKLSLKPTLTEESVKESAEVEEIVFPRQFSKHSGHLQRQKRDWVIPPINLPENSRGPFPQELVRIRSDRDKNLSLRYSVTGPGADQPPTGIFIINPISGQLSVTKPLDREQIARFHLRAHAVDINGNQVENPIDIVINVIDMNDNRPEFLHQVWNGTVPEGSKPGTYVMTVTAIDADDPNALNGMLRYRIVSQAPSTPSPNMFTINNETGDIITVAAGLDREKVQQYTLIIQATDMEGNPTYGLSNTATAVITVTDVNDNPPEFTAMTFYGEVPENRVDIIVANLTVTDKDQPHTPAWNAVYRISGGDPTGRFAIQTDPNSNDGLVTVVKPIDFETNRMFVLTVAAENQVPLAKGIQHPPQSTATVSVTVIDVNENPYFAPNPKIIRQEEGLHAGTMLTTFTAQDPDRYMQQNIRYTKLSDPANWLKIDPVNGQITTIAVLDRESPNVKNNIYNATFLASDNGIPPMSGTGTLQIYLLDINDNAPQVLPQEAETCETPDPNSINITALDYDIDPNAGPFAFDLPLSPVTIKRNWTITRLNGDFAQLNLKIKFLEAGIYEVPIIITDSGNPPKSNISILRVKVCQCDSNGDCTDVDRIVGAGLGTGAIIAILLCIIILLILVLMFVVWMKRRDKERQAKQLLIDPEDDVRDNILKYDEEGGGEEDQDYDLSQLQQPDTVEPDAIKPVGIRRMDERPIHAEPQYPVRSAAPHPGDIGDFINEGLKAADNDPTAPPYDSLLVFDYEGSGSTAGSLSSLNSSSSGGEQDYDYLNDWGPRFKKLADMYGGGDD

Test [1] concerns the target N-cadherin forth domain recombinant protein with 6 histidine tag (human) (UniProt P19022). As to the kind of experiment: phage ELISA.
Test [2] shares this target. As to the kind of experiment: phage ELISA, summary.

Results are given in words; binding and its absence hold for the method and conditions named. Binding calls can cover weak binding; strength is not graded here.

B1: A14 ScFv phage antibody clone (scFv)
scFv: MAQVQLVQSGGGLAQPGGSLRLSCAASGFTFSRHAMIWVRQAPGKGLEWVSSISGSSDSTSYADSVKGRFTISRDNSKNTLYLQMNTLRAEDTAVYYCAKATGYSYYYGMDVWGPGTTVTVSSGGGGSGGGGSGGGGSDIQMTQSPSSLSASLGDRVTITCRASQGISNYLAWYQQKPGKAPKLLIYGATTLQHGVPSRFSGSGSGTDFSLTISSLQPEDFAIYFCQQAHSFPPTFGGGTKLEIKR
notes: Clone A1 was renamed A14; Selected on ECD4-6HIS; also called A14 (A1)
Consider B1, for which the binding entry in test [1] and in test [2] was “binds” each time.
